Results deposited as PubChem BioAssay AID652243 (Drosophila RNAi Screening Center, 2013)

Screen: 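Fly regulators of androgen-dependent reporter output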 (primary screen)
Cell system: Drosophila S2R+ cells
Reagent: long dsRNA against Drosophila genes
Time to read-out: 72 h (48 h, then 24 h hormone)
Treatment: synthetic androgen R1881 at 10 nM for 24 h
Detection: 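Firefly light from an androgen-responsive reporter and Renilla control light per well, raw and unnormalised, for each of two replicates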
Direction: firefly reporter light: higher = more light from androgen-responsive reporter; Renilla control light: higher = more constitutive control signal (cell number, transfection)
Active means: 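Across duplicate plates, a knock-down whose log firefly/Renilla ratio shifted a set fold down or up from the GFP/LacZ control mean was a hit; the downward cut appears as both 1.5 and 3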
Calls: active = hit: reporter lowered or raised; inactive = no hit
In all, the deposit lists about 24,000 reagents; shown is a random part of those that have a named target and a result. In the full data, 246 (1%) are marked active. 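Plates not normalised; calls are printed but the firefly/Renilla ratio behind them is not deposited; fold cut for lowering reported inconsistently.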 Raw values are not corrected between plates. Names joined by + are all predicted targets of the reagent. Reagent sequences are not shown. Not stated in the record: the amount of reagent.

Gr59c (GeneID 192481) [DRSC04185]
- firefly reporter light, replicate 1: 2.14e5
- firefly reporter light, replicate 2: 2.67e5
- Renilla control light, replicate 1: 2.09e6
- Renilla control light, replicate 2: 1.69e6
- call: inactive

Syngr (GeneID 36533) [DRSC06003]
- firefly reporter light, replicate 1: 2.17e5
- firefly reporter light, replicate 2: 1.69e5
- Renilla control light, replicate 1: 2.11e6
- Renilla control light, replicate 2: 2.11e6
- call: inactive

ACXC (GeneID 34689) [DRSC00846]
- firefly reporter light, replicate 1: 3.05e5
- firefly reporter light, replicate 2: 2.93e5
- Renilla control light, replicate 1: 1.85e6
- Renilla control light, replicate 2: 2.15e6
- call: inactive

CG14568 (GeneID 40418) [DRSC11729]
- firefly reporter light, replicate 1: 2.52e5
- firefly reporter light, replicate 2: 2.65e5
- Renilla control light, replicate 1: 2.48e6
- Renilla control light, replicate 2: 3.10e6
- call: inactive

Pngl (GeneID 35527) [DRSC04914]
- firefly reporter light, replicate 1: 3.66e5
- firefly reporter light, replicate 2: 3.89e5
- Renilla control light, replicate 1: 2.72e6
- Renilla control light, replicate 2: 2.68e6
- call: inactive

ECSIT (GeneID 40732) [DRSC12348]
- firefly reporter light, replicate 1: 88705
- firefly reporter light, replicate 2: 37520
- Renilla control light, replicate 1: 1.55e6
- Renilla control light, replicate 2: 1.33e6
- call: inactive

csw (GeneID 45278) [DRSC18756]
- firefly reporter light, replicate 1: 1.73e5
- firefly reporter light, replicate 2: 2.70e5
- Renilla control light, replicate 1: 3.90e6
- Renilla control light, replicate 2: 2.99e6
- call: inactive

csw (GeneID 45278) [DRSC23326]
- firefly reporter light, replicate 1: 5.45e5
- firefly reporter light, replicate 2: 6.55e5
- Renilla control light, replicate 1: 7.05e5
- Renilla control light, replicate 2: 8.50e5
- call: inactive

csw (GeneID 45278) [DRSC36599]
- call: inactive

csw (GeneID 45278) [DRSC36600]
- firefly reporter light, replicate 1: 4.91e5
- firefly reporter light, replicate 2: 4.69e5
- Renilla control light, replicate 1: 1.07e6
- Renilla control light, replicate 2: 8.36e5
- call: inactive

CG5321 (GeneID 32399) [DRSC19940]
- firefly reporter light, replicate 1: 4.35e5
- firefly reporter light, replicate 2: 4.49e5
- Renilla control light, replicate 1: 2.16e6
- Renilla control light, replicate 2: 2.48e6
- call: inactive

CG5321 (GeneID 32399) [DRSC22802]
- firefly reporter light, replicate 1: 4.32e5
- firefly reporter light, replicate 2: 9.21e5
- Renilla control light, replicate 1: 8.58e5
- Renilla control light, replicate 2: 2.01e6
- call: inactive

CG5321 (GeneID 32399) [DRSC27348]
- firefly reporter light, replicate 1: 2.97e5
- firefly reporter light, replicate 2: 3.80e5
- Renilla control light, replicate 1: 7.75e5
- Renilla control light, replicate 2: 8.59e5
- call: inactive

CG8419 (GeneID 34118) [DRSC03087]
- firefly reporter light, replicate 1: 1.62e5
- firefly reporter light, replicate 2: 1.30e5
- Renilla control light, replicate 1: 1.56e6
- Renilla control light, replicate 2: 1.09e6
- call: inactive

Mlc2 (GeneID 43587) [DRSC16741]
- firefly reporter light, replicate 1: 97211
- firefly reporter light, replicate 2: 62780
- Renilla control light, replicate 1: 8.94e5
- Renilla control light, replicate 2: 6.04e5
- call: inactive

Mlc2 (GeneID 43587) [DRSC28878]
- firefly reporter light, replicate 1: 7.15e5
- firefly reporter light, replicate 2: 7.67e5
- Renilla control light, replicate 1: 1.51e6
- Renilla control light, replicate 2: 1.23e6
- call: inactive

CG12155 (GeneID 31682) [DRSC23294]
- firefly reporter light, replicate 1: 2.29e5
- firefly reporter light, replicate 2: 2.20e5
- Renilla control light, replicate 1: 1.51e6
- Renilla control light, replicate 2: 1.28e6
- call: inactive

CG8460 (GeneID 34115) [DRSC03090]
- firefly reporter light, replicate 1: 7.12e5
- firefly reporter light, replicate 2: 8.34e5
- Renilla control light, replicate 1: 1.21e6
- Renilla control light, replicate 2: 1.58e6
- call: inactive

CG43397 + CG12902 [DRSC06217]
- firefly reporter light, replicate 1: 4.13e5
- firefly reporter light, replicate 2: 2.97e5
- Renilla control light, replicate 1: 1.96e6
- Renilla control light, replicate 2: 2.10e6
- call: inactive

CG7054 (GeneID 42643) [DRSC16185]
- firefly reporter light, replicate 1: 33264
- firefly reporter light, replicate 2: 33376
- Renilla control light, replicate 1: 4.90e5
- Renilla control light, replicate 2: 6.05e5
- call: inactive

CG7054 (GeneID 42643) [DRSC26659]
- firefly reporter light, replicate 1: 1.77e5
- firefly reporter light, replicate 2: 2.68e5
- Renilla control light, replicate 1: 7.65e5
- Renilla control light, replicate 2: 7.52e5
- call: inactive
